Test results taken from US20020028193A1, “Recombinant beta2-adrenergic receptor delivery and use in treating airway and vascular diseases” (priority 2000, published 2002).
No signal at the amounts used counts as a negative. Protein sequences can lack the tags named with them.

Molecular target: T1, glucocorticoid receptor alpha (expressed from pRShGRalpha) (Homo sapiens) (UniProt P04150)
T1 sequence (looked up, limits assumed): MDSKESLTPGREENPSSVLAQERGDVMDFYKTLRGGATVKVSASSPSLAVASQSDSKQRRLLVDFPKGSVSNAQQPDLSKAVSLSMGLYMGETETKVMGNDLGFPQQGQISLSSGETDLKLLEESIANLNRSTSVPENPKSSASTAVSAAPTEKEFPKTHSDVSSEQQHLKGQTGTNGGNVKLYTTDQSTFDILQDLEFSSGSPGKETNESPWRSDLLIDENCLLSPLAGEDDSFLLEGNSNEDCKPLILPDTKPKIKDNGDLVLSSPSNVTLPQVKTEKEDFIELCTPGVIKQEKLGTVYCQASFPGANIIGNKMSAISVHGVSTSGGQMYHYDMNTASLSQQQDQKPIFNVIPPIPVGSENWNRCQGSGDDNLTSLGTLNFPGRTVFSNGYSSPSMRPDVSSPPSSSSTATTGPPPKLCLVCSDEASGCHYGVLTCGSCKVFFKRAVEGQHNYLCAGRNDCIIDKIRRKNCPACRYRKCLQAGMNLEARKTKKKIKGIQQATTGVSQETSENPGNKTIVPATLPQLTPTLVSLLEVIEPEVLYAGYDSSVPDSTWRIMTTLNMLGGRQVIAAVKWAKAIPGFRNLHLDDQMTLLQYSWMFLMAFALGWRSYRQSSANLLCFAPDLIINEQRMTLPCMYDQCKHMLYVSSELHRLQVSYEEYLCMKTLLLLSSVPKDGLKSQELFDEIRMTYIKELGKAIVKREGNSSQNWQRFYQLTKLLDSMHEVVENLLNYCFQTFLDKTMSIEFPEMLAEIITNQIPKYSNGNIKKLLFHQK
Assay: activity in cells
Details: mutation within pbeta2ARm1(-3129/+126); glucocorticoid inducibility lost in HepG2; protein in cells; only the site is given

Sequence: GGGTGAGCTATTCT (double strand) [m1GRE5 (core printed only)]
- activity on this sequence: not active
